In PubChem BioAssay AID306 (DTP/NCI, 2004):
The list does not hold the whole screen: it gathers tests that were run many times, whatever their T/C, doses with no T/C, and many T/C values between a quarter and a half above the control. Other doses and runs of a compound stand elsewhere. T/C gives the treated animals as a percentage of the vehicle group. Some doses have a count of surviving animals in place of a T/C: the source files T/C as zero there, which appears to mark a toxic dose or a test without result, not a measured value. Some survivor counts are full or nearly so, which does not show that the dose was tolerated: survival well below the control is almost never listed, so the zero probably covers shortened survival too. Survivors were counted at the toxicity check, usually on the fifth day, unless a day is given; later deaths do not show. Schedule codes are those of the source, taken here to give the interval after Q, in days (D) or hours (H), and the number of doses after X. Some schedules carry Z or #; the key to these is not given. Where survival is the endpoint, the PubChem record calls one and a half times the control and up active, and a quarter to a half above the control has no call in these data; cut-offs in other NCI protocols can differ.

Tested on: BDF1 mice, L1210 Methyl-GAG-resistant leukemia, survival T/C
Test: NCI In Vivo Anticancer Drug Screen. Data for tumor model L1210 Leukemia resistant to Methyl-GAG; NSC 32946 (subcutaneous) in B6D2F1 (BDF1) mice
Conditions: T/C endpoint: mean survival time, higher T/C = longer survival
Protocol: The antitumor activity of compounds was measured in mice bearing transplantable tumors. Survival or tumor size were measured and the results are expressed as the measurement made in the treated group (T) divided by the measurement made in the vehicle treated control group (C). The tumor model used in this assay is L1210 Leukemia resistant to Methyl-GAG; NSC 32946 (subcutaneous) in B6D2F1 (BDF1) mice

[1] = dose: 50.0 mg/kg/injection, schedule: Q01DX Z (ip), vehicle: carboxymethylcellulose (CMC)
[2] = dose: 200.0 mg/kg/injection, schedule: Q01DX Z (ip), vehicle: carboxymethylcellulose (CMC)
[3] = dose: 500.0 mg/kg/injection, schedule: Q01DX Z (ip), vehicle: carboxymethylcellulose (CMC)
[4] = dose: 1000.0 mg/kg/injection, schedule: Q01DX Z (ip), vehicle: carboxymethylcellulose (CMC)
[5] = dose: 250.0 mg/kg/injection, schedule: Q01DX Z (ip), vehicle: carboxymethylcellulose (CMC)

Q: `C[n+]1c2ccccc2nc2c(N)cc(N)cc21` was tested. Which survivor count [1] did it give?
A: Its survivor count is 0 of 6.

Q: How did the T/C (dose: 80.0 mg/kg/injection, schedule: Q01DX Z (sc), vehicle: steroid suspending solution) turn out when `CC(=O)O[C@]1(C(C)=O)CC[C@H]2[C@@H]3C[C@H](C)C4=CC(=O)C=C[C@]4(C)[C@@]3(F)[C@@H](O)C[C@@]21C` was run?
A: The T/C was 125 % of control.

Q: With `COc1cc2c(c(OC)c1OC)-c1ccc(OC)c(=O)cc1[C@@H](NC(C)=O)CC2` as the compound, how does the survivor count (dose: 0.5 mg/kg/injection, schedule: Q01DX Z (ip), vehicle: saline) read?
A: Its survivor count is 6 of 6.

Q: What about the survivor count (dose: 1.0 mg/kg/injection, schedule: Q01DX Z (ip), vehicle: saline) of the same compound?
A: Its survivor count is 5 of 6.

Q: And the survivor count (dose: 2.0 mg/kg/injection, schedule: Q01DX Z (ip), vehicle: saline)?
A: Its survivor count is 0 of 6.

Q: For `N#[N+]c1cnc([O-])[nH]c1=O`, which survivor count (dose: 20.0 mg/kg/injection, schedule: Q01DX Z (ip), vehicle: carboxymethylcellulose (CMC)) is on record?
A: The survivor count was 3 of 6.

Q: What about the survivor count (dose: 40.0 mg/kg/injection, schedule: Q01DX Z (ip), vehicle: carboxymethylcellulose (CMC)) of the same compound?
A: Its survivor count is 0 of 6.

Q: Which survivor count (dose: 5.0 mg/kg/injection, schedule: Q01DX Z (ip), vehicle: carboxymethylcellulose (CMC)) does the source give for `Nc1nc(=S)c2ncn(C3OC(CO)C(O)C3O)c2[nH]1` (stereo not drawn) here?
A: The survivor count was 6 of 6.

Q: And the survivor count (dose: 10.0 mg/kg/injection, schedule: Q01DX Z (ip), vehicle: carboxymethylcellulose (CMC))?
A: The survivor count was 6 of 6.

Q: What does the source list for `Nc1ncnc2[nH]ncc12`?
A: survivor count (dose: 100.0 mg/kg/injection, schedule: Q01DX Z (ip), vehicle: carboxymethylcellulose (CMC)): 5 of 6; survivor count [2]: 0 of 6

Q: Which survivor count (dose: 12.8 mg/kg/injection, schedule: Q01DX Z (ip), vehicle: methylcellulose (MC)) does the source give for `CS(=O)(=O)OCCCCOS(C)(=O)=O` here?
A: Its survivor count is 6 of 6.

Q: What about the survivor count (dose: 25.6 mg/kg/injection, schedule: Q01DX Z (ip), vehicle: methylcellulose (MC)) of the same compound?
A: Its survivor count is 6 of 6.

Q: How did the survivor count [2] turn out when `CS(=O)(=O)OCCCl` was run?
A: Its survivor count is 6 of 6.

Q: What about the survivor count (dose: 400.0 mg/kg/injection, schedule: Q01DX Z (ip), vehicle: carboxymethylcellulose (CMC)) of the same compound?
A: Its survivor count is 6 of 6.

Q: Which survivor count [3] does the source give for `CCOC(=O)NP(=O)(N1CC1(C)C)N1CC1(C)C` (stereo not drawn) here?
A: Its survivor count is 4 of 6.

Q: What about the survivor count [4] of the same compound?
A: Its survivor count is 0 of 6.

Q: `OCC1OC(n2cnc3c(=S)nc[nH]c32)C(O)C1O` (stereo not drawn) was tested. Which T/C (dose: 62.5 mg/kg/injection, schedule: Q01DX Z (ip), vehicle: carboxymethylcellulose (CMC)) did it give?
A: The T/C was 144 % of control.

Q: What about the T/C (dose: 125.0 mg/kg/injection, schedule: Q01DX Z (ip), vehicle: carboxymethylcellulose (CMC)) of the same compound?
A: Its T/C is 139 % of control.

Q: And the T/C [5]?
A: The T/C was 139 % of control.

Q: And the survivor count [3]?
A: The survivor count was 5 of 6.

Q: And the survivor count [4]?
A: Its survivor count is 6 of 6.

Q: How did the T/C [5] turn out when `O=c1[nH]c(=O)n(C2CC(O)C(CO)O2)cc1I` (stereo not drawn) was run?
A: Its T/C is 135 % of control.

Q: What about the survivor count [3] of the same compound?
A: The survivor count was 6 of 6.

Q: What about the survivor count [4] of the same compound?
A: Its survivor count is 6 of 6.

Q: How did the T/C (dose: 100.0 mg/kg/injection, schedule: Q01DX Z (ip), vehicle: saline) turn out when `CN(N=O)C(=O)NC(C=O)C(O)C(O)C(O)CO` (stereo not drawn) was run?
A: The T/C was 130 % of control.

Q: `S=P(N1CCOCC1)(N1CC1)N1CC1` was tested. Which survivor count [1] did it give?
A: The survivor count was 6 of 6.

Q: `Clc1ncnc2nc[nH]c12` was tested. Which survivor count [5] did it give?
A: Its survivor count is 6 of 6.
